Results: article doi:10.1101/2025.01.07.631702 (bioRxiv, 2025)
These are yes or no findings as the source states them, for the method shown.

Amino acid sequences for entries named in this document (tags omitted). Residues count along the entry.
UniProt P02769, residues 25-607: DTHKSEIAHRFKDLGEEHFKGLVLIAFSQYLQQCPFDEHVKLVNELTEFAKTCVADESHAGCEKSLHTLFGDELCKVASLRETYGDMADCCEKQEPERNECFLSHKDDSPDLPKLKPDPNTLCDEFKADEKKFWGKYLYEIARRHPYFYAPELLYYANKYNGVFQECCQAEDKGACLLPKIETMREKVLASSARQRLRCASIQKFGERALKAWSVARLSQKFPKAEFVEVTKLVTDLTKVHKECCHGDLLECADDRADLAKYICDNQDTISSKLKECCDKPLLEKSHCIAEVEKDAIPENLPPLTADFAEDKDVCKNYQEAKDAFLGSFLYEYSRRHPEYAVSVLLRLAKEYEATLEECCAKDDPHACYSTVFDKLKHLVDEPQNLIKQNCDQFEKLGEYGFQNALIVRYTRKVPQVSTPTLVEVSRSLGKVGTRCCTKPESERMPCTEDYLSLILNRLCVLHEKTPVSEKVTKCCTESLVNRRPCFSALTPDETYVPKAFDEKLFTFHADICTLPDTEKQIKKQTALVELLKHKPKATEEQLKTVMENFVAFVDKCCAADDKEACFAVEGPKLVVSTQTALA
UniProt Q14520, residues 24-291: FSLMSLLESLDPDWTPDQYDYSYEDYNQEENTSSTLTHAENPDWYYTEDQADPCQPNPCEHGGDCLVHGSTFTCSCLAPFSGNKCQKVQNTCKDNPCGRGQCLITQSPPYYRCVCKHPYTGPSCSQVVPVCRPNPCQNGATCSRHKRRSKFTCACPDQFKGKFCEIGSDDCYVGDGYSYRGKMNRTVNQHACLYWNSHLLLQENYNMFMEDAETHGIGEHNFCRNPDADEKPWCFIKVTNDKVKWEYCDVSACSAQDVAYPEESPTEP

Target: bovine serum albumin (BSA) (bovine) (UniProt P02769)
Test: ELISA

“heavy-chain (HC-) FSAP (residues 24-291) (from UniProt Q14520 24-291) (domain or fragment)” was tested, and the binding was “no binding (tested: 0-5 µg/ml)”.
